# Measurements: US7122650B2, “Promoter sequences for corticotropin releasing-factor binding protein and use thereof” (Wisconsin Alumni Research Foundation, priority 2002, dated 2006)
# At least one compound was matched to its structure with a doubt left.
# System: human CRF-BP promoter fragments
# Experiment: Forskolin-induced luciferase reporter expression from CRF-BP promoter fragments in transfected CHO-K1 cultures
# Type: cell-based
# Details: 10 μM forskolin with 0.25 mM IBMX, −4402, −1889, −381 fragments, P<0.001 for all cases
smiles,measurement,value
C=C[C@@]1(C)CC(=O)[C@]2(O)[C@@]3(C)[C@@H](O)CCC(C)(C)[C@@H]3[C@H](O)[C@H](OC(C)=O)[C@@]2(C)O1 [forskolin],expression from forskolin-treated cultures versus vehicle-treated cultures with identical promoter fragment,significantly greater
